Measurements published in PMC3815127.
These are yes or no findings as the source states them, for the method shown. In cells and extracts the contact can be indirect. Some results given as binding are weak or reduced against the parent protein; the word gives no strength.

The chains behind the UniProt entries cited, without tags or fusion partners. Where a name states a change or a piece, a line headed by the entry shows the natural chain unless it says otherwise.
UniProt Q14974: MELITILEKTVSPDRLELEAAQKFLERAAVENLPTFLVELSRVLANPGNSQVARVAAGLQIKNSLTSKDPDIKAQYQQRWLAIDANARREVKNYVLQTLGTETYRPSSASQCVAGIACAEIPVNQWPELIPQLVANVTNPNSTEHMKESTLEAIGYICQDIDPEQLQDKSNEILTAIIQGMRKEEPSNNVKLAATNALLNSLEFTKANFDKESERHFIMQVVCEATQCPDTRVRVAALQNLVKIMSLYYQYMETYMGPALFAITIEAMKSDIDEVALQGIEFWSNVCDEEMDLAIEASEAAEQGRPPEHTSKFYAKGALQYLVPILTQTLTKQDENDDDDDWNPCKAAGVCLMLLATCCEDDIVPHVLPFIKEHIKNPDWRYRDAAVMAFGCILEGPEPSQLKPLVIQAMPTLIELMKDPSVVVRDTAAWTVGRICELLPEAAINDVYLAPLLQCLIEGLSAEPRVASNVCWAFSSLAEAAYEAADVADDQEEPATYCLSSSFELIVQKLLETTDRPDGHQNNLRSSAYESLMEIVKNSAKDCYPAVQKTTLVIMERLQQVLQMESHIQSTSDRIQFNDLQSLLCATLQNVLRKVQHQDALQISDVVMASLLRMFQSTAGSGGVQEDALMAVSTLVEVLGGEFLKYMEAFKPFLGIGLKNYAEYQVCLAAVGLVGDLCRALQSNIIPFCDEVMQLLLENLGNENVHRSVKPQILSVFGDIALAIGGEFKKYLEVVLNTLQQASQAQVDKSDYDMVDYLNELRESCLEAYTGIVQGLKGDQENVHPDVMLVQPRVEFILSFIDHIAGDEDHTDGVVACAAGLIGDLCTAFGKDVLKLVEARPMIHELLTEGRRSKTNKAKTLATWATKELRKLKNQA
UniProt P17028: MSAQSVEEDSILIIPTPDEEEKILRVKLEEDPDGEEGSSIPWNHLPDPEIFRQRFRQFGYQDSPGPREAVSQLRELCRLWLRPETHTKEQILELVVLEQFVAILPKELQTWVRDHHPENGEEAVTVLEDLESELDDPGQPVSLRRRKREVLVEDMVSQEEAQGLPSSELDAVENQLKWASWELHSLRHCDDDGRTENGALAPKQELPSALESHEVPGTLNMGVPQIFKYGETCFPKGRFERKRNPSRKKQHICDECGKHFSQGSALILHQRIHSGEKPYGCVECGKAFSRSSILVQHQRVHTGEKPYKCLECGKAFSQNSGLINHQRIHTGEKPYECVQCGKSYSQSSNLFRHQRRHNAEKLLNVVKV

Biological target: Importin-β1 (human (endogenous in HEK293)) (UniProt Q14974)
Assay: co-IP; Importin-β1 immunoprecipitated from 500 µg pre-cleared whole cell lysate of HEK293 cells transiently expressing GFP-tagged ZNF24 proteins, 1.0 µg Karyopherin-β1 antibody (or mouse IgG as control) 2 h, Protein A/G beads overnight at 4°C; blotted with anti-GFP or anti-importin

Substance	binding
Full-length human ZNF24 fused to GFP (ZNF24-GFP, wild type) (from UniProt P17028 1-368)	binds
ZNF24 residues 1-250 fused to GFP (1-250-GFP; whole ZF region deleted) (from UniProt P17028 1-250) (domain or fragment)	no binding
